Sequences of proteins named here, by UniProt entry; tags and fusion partners are left off.
UniProt Q0JBA9, entry or part of it: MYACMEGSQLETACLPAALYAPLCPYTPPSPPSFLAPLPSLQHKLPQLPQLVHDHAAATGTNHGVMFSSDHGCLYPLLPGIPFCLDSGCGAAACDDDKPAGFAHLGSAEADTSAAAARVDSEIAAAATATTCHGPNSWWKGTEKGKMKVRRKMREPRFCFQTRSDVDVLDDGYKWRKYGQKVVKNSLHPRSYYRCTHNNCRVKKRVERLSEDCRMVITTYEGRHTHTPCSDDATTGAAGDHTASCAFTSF

The list shows a part of the results.
The sequences below were run against OsWRKY34 (Oryza sativa, UniProt Q0JBA9 1-250) (assay: protein-binding microarray (RPBM); PBS, 2% BSA, 51.3 ng/ul salmon testes DNA, 50 uM zinc acetate, 200 nM TF, 25 C, 1 h; high values mean tight binding). Settings: protein: recombinant; tags: N-terminal polyhistidine and DsRed monomer fusion (pET32a); label: CyDye5-dUTP incorporated in the synthesized complementary strand; 3' TTTTT single-stranded linker to array surface; dsDNA, one strand shown.
In short: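 An Axon 4000B scanner gave the binding signal as per-feature fluorescence intensity in arbitrary units. This followed washing of a custom Agilent array that had been incubated for 1 h at 25 °C with 200 nM protein in PBS, 2% BSA, salmon testes DNA and 50 µM zinc acetate. The proteins were transcription factors fused at the N-terminus to polyhistidine and DsRed, expressed in E. coli BL21-CodonPlus and purified on Ni–NTA.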
“ATTAAACTATCCGCCACGTTGCCCGGCTCACCCACCCACTCGGAGTCACCTAGTGCAG” was tested, and the binding signal was 8250 fluorescence intensity (a.u.).
With “TTTTTCTTGTGCTCTATCCATCCATGCCATGCCATTCATCCGGAGTCACCTAGTGCAG” the binding signal was 10200 fluorescence intensity (a.u.).
In the case of “TCCACGTCACACGCTTGCACAGCCACACTTCGCCACCGTTCGGAGTCACCTAGTGCAG”, the binding signal is reported as 10400 fluorescence intensity (a.u.).
“CTAGGCTTTCCTCTGTTGCTTGGTTGCATTGCATGCTTCTCGGAGTCACCTAGTGCAG” was tested, and the binding signal was 9950 fluorescence intensity (a.u.).
With “GTCGCACGGCCACTTAACTTCTTCCTCTCGTGTGAATGGTCGGAGTCACCTAGTGCAG” the binding signal was 8680 fluorescence intensity (a.u.).
For “CTTGTGCCGCCGTCCTTGCCCGCTGCTCCTGCCGCCTCCTCGGAGTCACCTAGTGCAG”, the binding signal was 9660 fluorescence intensity (a.u.).
For “GTCATTCCTATGTTTTTCCTGTATTTTGCAATCCTCTGTTCGGAGTCACCTAGTGCAG”, the binding signal was 13500 fluorescence intensity (a.u.).
For “CTATATTTGCTAGTTTGATTCATGTCCACAGATTTTTATTCGGAGTCACCTAGTGCAG”, the binding signal was 8150 fluorescence intensity (a.u.).
For “GAATAAGACGAATGGTCAAATATGTGCTAAAAAGTCAACGCGGAGTCACCTAGTGCAG”, the binding signal was 10000 fluorescence intensity (a.u.).
In the case of “CAGTGTAGGGGAGAGAGAGAGAGAGTGGGGTAGAGGGATGCGGAGTCACCTAGTGCAG”, the binding signal is reported as 8980 fluorescence intensity (a.u.).
In the case of “GCACTATCAATTCTTCTTGATTCTTCTTTGTATTTGGATTCGGAGTCACCTAGTGCAG”, the binding signal is reported as 10000 fluorescence intensity (a.u.).
“TGCCCGGCTCGGCTACCCCGTCGCCACCGCCGTTCGTTTCCGGAGTCACCTAGTGCAG” was tested, and the binding signal was 8580 fluorescence intensity (a.u.).
With “GCTTTTTTTTCTACTAAGTTTATTTATGGTTCTTTGTTTTCGGAGTCACCTAGTGCAG” the binding signal was 9420 fluorescence intensity (a.u.).
For “CTTCAGCCTCCGCCACGCAACAATTAAATACGTGCACTCCCGGAGTCACCTAGTGCAG”, the binding signal was 10400 fluorescence intensity (a.u.).
“GGAGGTGGAAAATCTTTGTTTTTTTCCTGGTTACGATCTCCGGAGTCACCTAGTGCAG” was tested, and the binding signal was 9150 fluorescence intensity (a.u.).
With “GTGTCATGAAGGTATTAAGACTTTTTTTATGTTATCACAGCGGAGTCACCTAGTGCAG” the binding signal was 8120 fluorescence intensity (a.u.).
With “GTATATCATCGTTTTTGTACGTGGTTCAATGTATATTACTCGGAGTCACCTAGTGCAG” the binding signal was 9220 fluorescence intensity (a.u.).
For “ACCGCTTTTCGATAGTGGGCCCACCTGGTTTTGTTTGCGTCGGAGTCACCTAGTGCAG”, the binding signal was 10200 fluorescence intensity (a.u.).
With “ATCTTTTTTCTTAGGTTTCACATCTGCCTCTTTTTAAACACGGAGTCACCTAGTGCAG” the binding signal was 10100 fluorescence intensity (a.u.).
In the case of “GTCGGGTTCGGGTACTGTTGATGCTGATCGAGATGGTCCTCGGAGTCACCTAGTGCAG”, the binding signal is reported as 8650 fluorescence intensity (a.u.).
“GCACTCCCATTCACATTCCCACTCGCACTCCCATTCTCATCGGAGTCACCTAGTGCAG” was tested, and the binding signal was 11700 fluorescence intensity (a.u.).
With “CTTTTTTATCGCTGCGTCCAATCCTAATCCACTATTTATGCGGAGTCACCTAGTGCAG” the binding signal was 8240 fluorescence intensity (a.u.).
With “TTGCCATCACCATCTCCATCTCTCTCTCCTCTCCTATTCTCGGAGTCACCTAGTGCAG” the binding signal was 12900 fluorescence intensity (a.u.).
With “TCCTCTCTCCACTACCAACCTCTCGCGGAGACCCAAACCCCGGAGTCACCTAGTGCAG” the binding signal was 9700 fluorescence intensity (a.u.).
In the case of “AACCAGCTCGTCAATTAATTATTGTGATTACGTTTCATCTCGGAGTCACCTAGTGCAG”, the binding signal is reported as 8060 fluorescence intensity (a.u.).
For “GCTCCTTTTGTTGGGAATATTTGTAATTCTTGGCGGAATTCGGAGTCACCTAGTGCAG”, the binding signal was 13100 fluorescence intensity (a.u.).
For “AAGTACTGATAAACTCTGATGTTTTATTATTTTTTTTCTTCGGAGTCACCTAGTGCAG”, the binding signal was 10400 fluorescence intensity (a.u.).
“GCCAACTTGCGCTAATCTTACCTCTCGGTCACATGCAACACGGAGTCACCTAGTGCAG” was tested, and the binding signal was 9560 fluorescence intensity (a.u.).
With “TCCGTCAGCCACCGAATTTGTTTGCCTCTCTCAGCATCAGCGGAGTCACCTAGTGCAG” the binding signal was 8050 fluorescence intensity (a.u.).
With “AAGTTGCATCCGGTGCATTTCCTGCGTACCTTAAATTTCTCGGAGTCACCTAGTGCAG” the binding signal was 8110 fluorescence intensity (a.u.).
For “GCCCATATATTTGCCCAAAAATCAGCCCATATCGATTTTTCGGAGTCACCTAGTGCAG”, the binding signal was 8190 fluorescence intensity (a.u.).
“CTCAAGTGTTTCTGCCATTTTGACTCGAACCCATCCACGGCGGAGTCACCTAGTGCAG” was tested, and the binding signal was 8180 fluorescence intensity (a.u.).
For “CCATGTTGACCGCCACCTCACCTCCTCCCCTTCCCTTCCCCGGAGTCACCTAGTGCAG”, the binding signal was 9930 fluorescence intensity (a.u.).
In the case of “TATCCGGCCATCCTCCCCATCCATCCGCCGTGCTGCTGCCCGGAGTCACCTAGTGCAG”, the binding signal is reported as 8290 fluorescence intensity (a.u.).
“TTTTTCCAAAATTTTAACTGTTTTTTTTCGTCGAGGGTAACGGAGTCACCTAGTGCAG” was tested, and the binding signal was 8610 fluorescence intensity (a.u.).
For “AATTGCACACATAGTTACCTACCTTACCTACCTCTTCAGGCGGAGTCACCTAGTGCAG”, the binding signal was 8250 fluorescence intensity (a.u.).
With “CCTACCTACGCTGGTTTAATTAATTCATAGCTAGCTCGCCCGGAGTCACCTAGTGCAG” the binding signal was 8620 fluorescence intensity (a.u.).
“CTGTTCGTATTTGCCAACTATTGTGTTTATGCGCATATTTCGGAGTCACCTAGTGCAG” was tested, and the binding signal was 11900 fluorescence intensity (a.u.).
“GCCGCCGTCTCGTCGCCCTTCCTCTCTCGCTCATTTTCGCCGGAGTCACCTAGTGCAG” was tested, and the binding signal was 8350 fluorescence intensity (a.u.).
With “GGTTTCTTACTGTTTACGTTGTTTGCACCTGCAGCGGTCGCGGAGTCACCTAGTGCAG” the binding signal was 9870 fluorescence intensity (a.u.).
“TTTCTATAAACTTGGTCAAACTTAAAGCAGTTTGACTTTGCGGAGTCACCTAGTGCAG” was tested, and the binding signal was 11900 fluorescence intensity (a.u.).
For “CTTCCTTCCTAACGTATCGCCCACATTCCTCCACGTCTCCCGGAGTCACCTAGTGCAG”, the binding signal was 8980 fluorescence intensity (a.u.).
